Paper PMC11362013, “Mechanism for controlled assembly of transcriptional condensates by Aire” (Nature Immunology, 2024)
No constants are given. Whether binding was seen depends on the method and setting. Binding seen in cells or lysates may run through a third protein. Here binding means that the protein was enriched with, or labelled near, the bait; the list need not be complete. Sequences can lack the tags named with a protein.

The chains behind the UniProt entries cited, without tags or fusion partners.
UniProt Q92793: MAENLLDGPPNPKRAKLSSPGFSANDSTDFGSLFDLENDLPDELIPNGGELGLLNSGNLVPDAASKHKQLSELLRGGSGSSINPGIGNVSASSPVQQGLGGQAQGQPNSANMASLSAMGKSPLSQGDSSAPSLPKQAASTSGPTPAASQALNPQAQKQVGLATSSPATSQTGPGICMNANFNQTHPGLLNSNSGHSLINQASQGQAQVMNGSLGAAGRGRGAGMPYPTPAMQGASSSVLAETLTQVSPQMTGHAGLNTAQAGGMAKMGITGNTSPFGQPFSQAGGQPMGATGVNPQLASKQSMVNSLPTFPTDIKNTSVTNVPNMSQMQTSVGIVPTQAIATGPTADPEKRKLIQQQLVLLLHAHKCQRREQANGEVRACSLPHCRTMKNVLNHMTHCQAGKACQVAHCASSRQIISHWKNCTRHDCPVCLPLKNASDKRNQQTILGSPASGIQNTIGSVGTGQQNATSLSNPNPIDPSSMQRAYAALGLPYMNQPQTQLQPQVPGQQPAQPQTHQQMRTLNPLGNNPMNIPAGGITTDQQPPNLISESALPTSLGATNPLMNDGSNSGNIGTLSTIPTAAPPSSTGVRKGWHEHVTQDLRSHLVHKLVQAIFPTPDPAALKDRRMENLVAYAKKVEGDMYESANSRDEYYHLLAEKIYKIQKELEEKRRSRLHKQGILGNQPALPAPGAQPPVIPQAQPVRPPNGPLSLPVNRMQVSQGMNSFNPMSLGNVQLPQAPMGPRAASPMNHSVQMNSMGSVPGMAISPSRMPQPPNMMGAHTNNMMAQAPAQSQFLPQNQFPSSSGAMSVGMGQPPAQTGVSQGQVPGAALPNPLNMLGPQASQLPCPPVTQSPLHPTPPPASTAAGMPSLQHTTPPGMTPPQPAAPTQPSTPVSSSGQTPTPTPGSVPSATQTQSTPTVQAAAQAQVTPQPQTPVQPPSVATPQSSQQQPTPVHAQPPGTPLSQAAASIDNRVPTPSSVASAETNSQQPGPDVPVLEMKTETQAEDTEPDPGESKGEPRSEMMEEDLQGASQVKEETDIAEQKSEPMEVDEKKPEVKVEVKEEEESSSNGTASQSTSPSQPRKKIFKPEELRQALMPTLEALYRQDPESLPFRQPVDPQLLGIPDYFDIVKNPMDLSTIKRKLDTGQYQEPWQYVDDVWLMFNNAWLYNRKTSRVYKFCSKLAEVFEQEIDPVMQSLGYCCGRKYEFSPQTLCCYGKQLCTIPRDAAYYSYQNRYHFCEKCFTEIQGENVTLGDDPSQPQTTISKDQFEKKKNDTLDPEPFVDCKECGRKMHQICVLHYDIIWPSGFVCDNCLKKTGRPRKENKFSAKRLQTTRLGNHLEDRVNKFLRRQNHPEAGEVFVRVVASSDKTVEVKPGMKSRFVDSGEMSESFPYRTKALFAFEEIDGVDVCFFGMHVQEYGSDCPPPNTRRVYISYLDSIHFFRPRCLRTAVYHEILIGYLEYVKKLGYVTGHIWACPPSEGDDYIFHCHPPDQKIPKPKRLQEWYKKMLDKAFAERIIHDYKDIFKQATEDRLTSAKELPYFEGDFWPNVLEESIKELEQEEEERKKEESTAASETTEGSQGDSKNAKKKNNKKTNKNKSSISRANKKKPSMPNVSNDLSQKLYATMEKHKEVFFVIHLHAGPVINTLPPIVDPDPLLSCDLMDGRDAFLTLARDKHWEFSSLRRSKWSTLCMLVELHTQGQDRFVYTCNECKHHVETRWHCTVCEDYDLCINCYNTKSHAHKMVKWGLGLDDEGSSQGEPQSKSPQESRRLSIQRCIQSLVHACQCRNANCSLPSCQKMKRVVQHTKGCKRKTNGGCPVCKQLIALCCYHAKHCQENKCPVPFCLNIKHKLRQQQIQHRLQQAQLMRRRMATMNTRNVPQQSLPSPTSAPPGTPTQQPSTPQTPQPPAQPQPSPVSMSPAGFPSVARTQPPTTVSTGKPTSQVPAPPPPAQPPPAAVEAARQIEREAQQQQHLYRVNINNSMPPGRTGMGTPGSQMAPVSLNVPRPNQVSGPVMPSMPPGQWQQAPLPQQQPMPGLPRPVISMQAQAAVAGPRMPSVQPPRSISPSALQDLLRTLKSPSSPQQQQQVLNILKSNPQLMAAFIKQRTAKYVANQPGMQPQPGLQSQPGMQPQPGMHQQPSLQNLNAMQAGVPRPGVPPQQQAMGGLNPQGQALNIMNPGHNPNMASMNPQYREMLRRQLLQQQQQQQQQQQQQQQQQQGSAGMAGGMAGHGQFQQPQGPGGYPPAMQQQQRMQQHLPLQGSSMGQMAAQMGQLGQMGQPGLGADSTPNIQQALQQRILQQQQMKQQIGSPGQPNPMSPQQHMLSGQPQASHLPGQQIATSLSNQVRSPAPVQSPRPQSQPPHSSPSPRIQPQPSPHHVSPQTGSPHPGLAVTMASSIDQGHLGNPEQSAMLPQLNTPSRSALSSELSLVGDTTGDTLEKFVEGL
UniProt Q09472: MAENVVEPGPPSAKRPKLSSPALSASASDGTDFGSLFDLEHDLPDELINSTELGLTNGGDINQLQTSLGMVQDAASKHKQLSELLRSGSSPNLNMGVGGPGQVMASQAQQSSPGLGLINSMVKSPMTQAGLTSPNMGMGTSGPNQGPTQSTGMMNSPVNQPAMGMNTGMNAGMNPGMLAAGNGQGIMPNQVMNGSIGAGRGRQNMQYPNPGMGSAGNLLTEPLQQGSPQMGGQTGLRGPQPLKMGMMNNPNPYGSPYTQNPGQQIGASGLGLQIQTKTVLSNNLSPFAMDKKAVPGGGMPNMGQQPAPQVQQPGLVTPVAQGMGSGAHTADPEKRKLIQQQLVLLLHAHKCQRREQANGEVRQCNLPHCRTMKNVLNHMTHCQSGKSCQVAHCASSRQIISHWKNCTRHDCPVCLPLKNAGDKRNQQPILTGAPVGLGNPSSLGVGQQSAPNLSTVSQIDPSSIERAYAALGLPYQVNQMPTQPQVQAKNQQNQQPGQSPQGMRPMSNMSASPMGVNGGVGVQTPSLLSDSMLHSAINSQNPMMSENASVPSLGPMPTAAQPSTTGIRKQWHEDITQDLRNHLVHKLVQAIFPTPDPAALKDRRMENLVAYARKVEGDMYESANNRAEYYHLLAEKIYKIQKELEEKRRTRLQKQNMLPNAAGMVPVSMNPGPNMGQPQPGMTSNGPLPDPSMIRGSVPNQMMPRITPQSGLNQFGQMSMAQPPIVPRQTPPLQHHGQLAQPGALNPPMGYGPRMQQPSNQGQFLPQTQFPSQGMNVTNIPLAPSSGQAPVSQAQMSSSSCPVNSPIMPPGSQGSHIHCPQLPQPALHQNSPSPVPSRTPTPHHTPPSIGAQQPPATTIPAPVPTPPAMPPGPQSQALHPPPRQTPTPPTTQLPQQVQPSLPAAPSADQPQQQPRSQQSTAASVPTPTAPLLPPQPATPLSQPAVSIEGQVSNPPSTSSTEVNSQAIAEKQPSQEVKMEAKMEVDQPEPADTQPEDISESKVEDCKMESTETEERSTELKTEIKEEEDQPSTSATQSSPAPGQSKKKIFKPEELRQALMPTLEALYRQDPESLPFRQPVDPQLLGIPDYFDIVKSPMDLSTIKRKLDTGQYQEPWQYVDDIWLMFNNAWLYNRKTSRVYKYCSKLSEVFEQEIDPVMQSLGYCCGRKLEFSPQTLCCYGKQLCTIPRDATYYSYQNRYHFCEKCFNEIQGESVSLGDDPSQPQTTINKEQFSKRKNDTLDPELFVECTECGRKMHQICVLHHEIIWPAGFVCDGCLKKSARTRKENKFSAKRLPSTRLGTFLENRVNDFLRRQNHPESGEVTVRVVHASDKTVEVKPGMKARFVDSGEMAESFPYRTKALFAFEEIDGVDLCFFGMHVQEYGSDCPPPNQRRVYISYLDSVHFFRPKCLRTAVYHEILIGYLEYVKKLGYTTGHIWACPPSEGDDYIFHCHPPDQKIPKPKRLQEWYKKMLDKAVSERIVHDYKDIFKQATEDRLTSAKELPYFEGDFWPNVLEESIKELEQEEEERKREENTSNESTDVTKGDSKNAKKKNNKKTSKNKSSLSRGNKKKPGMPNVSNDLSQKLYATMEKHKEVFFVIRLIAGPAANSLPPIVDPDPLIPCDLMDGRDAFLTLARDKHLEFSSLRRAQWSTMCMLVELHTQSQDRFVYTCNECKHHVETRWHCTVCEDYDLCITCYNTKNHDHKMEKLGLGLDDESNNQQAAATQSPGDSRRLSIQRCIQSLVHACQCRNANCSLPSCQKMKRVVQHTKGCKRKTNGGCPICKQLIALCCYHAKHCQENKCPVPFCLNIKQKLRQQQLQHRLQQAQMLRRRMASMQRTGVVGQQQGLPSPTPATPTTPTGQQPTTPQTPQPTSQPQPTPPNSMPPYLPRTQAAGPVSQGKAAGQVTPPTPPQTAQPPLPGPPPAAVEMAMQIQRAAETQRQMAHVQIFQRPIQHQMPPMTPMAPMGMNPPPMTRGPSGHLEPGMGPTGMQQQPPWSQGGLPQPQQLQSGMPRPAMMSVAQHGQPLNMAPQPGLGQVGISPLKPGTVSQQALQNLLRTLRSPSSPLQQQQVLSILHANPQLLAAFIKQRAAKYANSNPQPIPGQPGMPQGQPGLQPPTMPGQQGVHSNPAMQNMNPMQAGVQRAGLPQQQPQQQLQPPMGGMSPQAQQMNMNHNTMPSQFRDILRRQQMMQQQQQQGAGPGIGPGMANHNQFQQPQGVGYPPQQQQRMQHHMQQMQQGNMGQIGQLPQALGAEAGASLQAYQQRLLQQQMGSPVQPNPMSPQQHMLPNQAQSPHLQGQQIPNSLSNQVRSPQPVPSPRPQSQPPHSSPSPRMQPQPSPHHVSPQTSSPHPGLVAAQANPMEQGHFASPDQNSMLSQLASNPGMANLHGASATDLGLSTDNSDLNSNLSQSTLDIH

Target: T1, His6-GST-mouse Aire CTT (mouse) (UniProt Q9Z0E3)
T1 sequence: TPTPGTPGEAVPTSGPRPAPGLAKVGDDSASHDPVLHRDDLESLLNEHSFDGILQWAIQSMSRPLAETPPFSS
Assay: affinity purification with mass spectrometry; His6-GST-mouse Aire CTT on glutathione Sepharose beads, 293T nuclear extract, 16 h at 4 °C; ~250 kDa SDS-PAGE band cut and analysed by LC-MS/MS; His6-GST as negative control; only the target purified

Row | Substance | binding
1 | CBP (from UniProt Q92793 1-2442) | binds
2 | p300 (from UniProt Q09472 1-2414) | binds
